Data: patent publication US5599937A, “Heteroaromatic quinuclidinenes, their use and preparation” (Pharmacia AB, priority 1992, dated 1997)
The name of at least one read-out is uncertain.

Target: muscarinic receptor subtypes in the cerebral cortex
Assay: Receptor binding assay: displacement of radiolabeled quinuclidinyl benzilate, cerebral cortex preparation
Details: guinea pig cerebral cortex, read-out: affinity for muscarinic receptors, Cortex

SMILES: C1=C(c2nc3ccccc3o2)C2CCN1CC2 [Example 26, 3-(Benzoxazol-2-yl)-quinuclidin-2-ene]
- Ki: 170 nM
